Laboratory results as given in patent publication US20230416942A1 (YALE UNIVERSITY, published 2023).
Results are given in words; binding and its absence hold for the method and conditions named. Some binding calls cover weakened binding; strength is not graded here.

The chains behind the UniProt entries cited, without tags or fusion partners. Residues count along the entry.
UniProt P01375, residues 57-233: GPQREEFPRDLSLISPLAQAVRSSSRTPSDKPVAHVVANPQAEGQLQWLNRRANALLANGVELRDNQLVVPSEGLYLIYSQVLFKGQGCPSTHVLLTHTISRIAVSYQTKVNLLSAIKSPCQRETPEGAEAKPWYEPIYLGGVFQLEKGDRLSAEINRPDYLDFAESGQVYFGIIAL
UniProt Q9UNG2, residues 49-177: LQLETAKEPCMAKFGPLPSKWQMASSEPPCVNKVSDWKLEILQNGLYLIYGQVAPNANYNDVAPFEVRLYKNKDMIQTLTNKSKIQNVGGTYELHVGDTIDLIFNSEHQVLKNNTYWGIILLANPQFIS
UniProt P04234, residues 22-105: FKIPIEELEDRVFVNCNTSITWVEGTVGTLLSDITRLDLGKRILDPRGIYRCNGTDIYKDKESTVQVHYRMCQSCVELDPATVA
UniProt P05019, residues 49-118: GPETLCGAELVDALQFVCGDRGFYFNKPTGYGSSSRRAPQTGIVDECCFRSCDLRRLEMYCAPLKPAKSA
UniProt P35225, residues 35-146: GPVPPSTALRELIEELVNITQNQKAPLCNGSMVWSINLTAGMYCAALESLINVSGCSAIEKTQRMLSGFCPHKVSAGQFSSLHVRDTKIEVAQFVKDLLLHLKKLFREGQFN
UniProt P18510, residues 26-177: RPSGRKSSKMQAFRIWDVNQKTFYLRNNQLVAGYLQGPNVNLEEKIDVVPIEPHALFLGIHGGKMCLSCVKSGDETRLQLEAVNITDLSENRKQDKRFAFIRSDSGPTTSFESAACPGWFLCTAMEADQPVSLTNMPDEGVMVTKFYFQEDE
UniProt Q9HBE4, residues 32-162: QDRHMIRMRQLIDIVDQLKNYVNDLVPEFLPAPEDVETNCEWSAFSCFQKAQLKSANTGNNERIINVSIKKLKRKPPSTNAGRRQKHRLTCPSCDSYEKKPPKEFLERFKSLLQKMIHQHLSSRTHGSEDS

Key:
TMEM149 (human) = target: T1, TMEM149 (human) (UniProt Q9H665); assay: REAP, yeast-displayed human antigen library
T1 sequence (looked up): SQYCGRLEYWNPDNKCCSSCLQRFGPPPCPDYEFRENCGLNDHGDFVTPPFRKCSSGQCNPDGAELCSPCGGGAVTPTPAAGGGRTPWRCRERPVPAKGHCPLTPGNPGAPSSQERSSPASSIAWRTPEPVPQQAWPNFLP

[1] = target: TNF (yeast-displayed human antigen, REAP library) (human) (UniProt P01375); assay: REAP, nanobody-Fc on yeast-displayed human antigen library (REAP Binding to Targets)
CCL16 = target: T2, CCL16 (human, UniProt O15467 24-120); assay: REAP, yeast-displayed human antigen library
T2 construct: Recombinant human protein in ELISA and BLI
T2 sequence (looked up): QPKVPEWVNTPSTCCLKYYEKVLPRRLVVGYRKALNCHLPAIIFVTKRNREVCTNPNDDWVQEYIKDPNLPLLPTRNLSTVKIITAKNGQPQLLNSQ

[2] = target: TNFSF18 (yeast-displayed human antigen, REAP library) (human) (UniProt Q9UNG2); assay: REAP, nanobody-Fc on yeast-displayed human antigen library (REAP Binding to Targets)
CD3D = target: T3, CD3D (human, UniProt P04234 22-105); assay: REAP, yeast-displayed human antigen library
T3 construct: Recombinant human protein in ELISA

CEACAM4 = target: T4, CEACAM4 (human, UniProt O75871 36-155, limits assumed); assay: REAP, yeast-displayed human antigen library
T4 construct: Recombinant human protein in ELISA
T4 sequence (looked up): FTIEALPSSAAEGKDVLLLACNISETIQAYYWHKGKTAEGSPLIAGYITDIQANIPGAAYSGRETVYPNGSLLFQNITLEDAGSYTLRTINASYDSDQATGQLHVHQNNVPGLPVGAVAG

IGF1 (human) = IGF1 (human) (UniProt P05019); assay: REAP, yeast-displayed human antigen library
IL13 = target: T5, IL13 (human, UniProt P35225 35-146, limits assumed); assay: REAP, yeast-displayed human antigen library
T5 construct: Recombinant human protein in ELISA

IL17A = target: T6, IL17A (human, UniProt Q16552 24-155); assay: REAP, yeast-displayed human antigen library
T6 construct: Recombinant human protein in ELISA and BLI
T6 sequence (looked up): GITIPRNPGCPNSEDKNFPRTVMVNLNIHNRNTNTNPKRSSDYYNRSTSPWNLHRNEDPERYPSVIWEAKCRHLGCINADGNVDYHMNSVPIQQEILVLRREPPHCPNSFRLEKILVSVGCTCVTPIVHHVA

IL1RN = target: T7, IL1RN (human, UniProt P18510 26-177); assay: REAP, yeast-displayed human antigen library
T7 construct: Recombinant human protein in ELISA and BLI

IL21 = target: T8, IL21 (human, UniProt Q9HBE4 32-162, limits assumed); assay: REAP, yeast-displayed human antigen library
T8 construct: Recombinant human protein in ELISA

B1: TMEM149_Nb3.446 (Fc fusion, not shown: a dimerising Fc or GST)
chain: QVQLQESGGGLVQAGGSLRLSCAASGNISYYAEMGWYRQAPGKEREFVAAIAWGANTYYADSVKGRFTISRDNAKNTVYLQMNSLKPEDTAVYYCAVYYDIPRNHFYWGQGTQVTVSS
- binding (TMEM149 (human)): binds

B2: TMEM149_Nb3.530 (Fc fusion, not shown: a dimerising Fc or GST)
chain: QVQLQESGGGLVQAGGSLRLSCAASGSIFLLDRMGWYRQAPGKEREFVAGIGYGGSTYYADSVKGRFTISRDNAKNTVYLQMNSLKPEDTAVYYCAAQTWDEDGYWSDYDYWGQGTQVTVSS
- binding (TMEM149 (human)): binds

B3: TNF_Nb105 (Fc fusion)
chain: QVQLQESGGGLVQAGGSLRLSCAASGTISVTYFMGWYRQAPGKERELVAGIGTGANTYYADSVKGRFTISRDNAKNTVYLQMNSLKPEDTAVYYCAAYIGAPVYGDGQSRNKAKVYDYWGQGTQVTVSS
notes: Nanobody expressed as an Fc fusion protein (fused with human IgG1) in Expi293 cells; not shown: human IgG1 Fc; nanobodies expressed as Fc fusion from vector pCER243
- binding [1]: binds

B4: TNF_Nb109 (Fc fusion)
chain: QVQLQESGGGLVQAGGSLRLSCAASGYISGEWFMGWYRQAPGKERELVAGISRGSTTYYADSVKGRFTISRDNAKNTVYLQMNSLKPEDTAVYYCAVYLTHKGYDGADGVVHHRYWGQGTQVTVSS
notes: as for B3
- binding [1]: binds

B5: CCL16_Nb2.5 (Fc fusion)
chain: QVQLQESGGGLVQAGGSLRLSCAASGYIFGVYDMGWYRQAPGKERELVATISAGGTTNYADSVKGRFTISRDNAKNTVYLQMNSLKPEDTAVYYCAAYTDYSPYDGAALVYWGQGTQVTVSS
notes: Nanobody expressed and tested as Fc fusion (human IgG1); not shown: human IgG1 Fc (vector pCER243)
- binding (CCL16): binds

B6: TNFSF18_Nb101 (Fc fusion)
chain: QVQLQESGGGLVQAGGSLRLSCAASGYIFDDYGMGWYRQAPGKERELVATINAGANTNYADSVKGRFTISRDNAKNTVYLQMNSLKPEDTAVYYCAVYYGPYYRYLDPYLYWGQGTQVTVSS
notes: as for B3
- binding [2]: binds

B7: TNFSF18_Nb93 (Fc fusion)
chain: QVQLQESGGGLVQAGGSLRLSCAASGNISDPPFMGWYRQAPGKERELVAGISWGASTYYADSVKGRFTISRDNAKNTVYLQMNSLKPEDTAVYYCAAVTTDFGAYPFAYWGQGTQVTVSS
notes: as for B3
- binding [2]: binds

B8: TNFSF18_Nb96 (Fc fusion)
chain: QVQLQESGGGLVQAGGSLRLSCAASGNISWVYWMGWYRQAPGKERELVAGIATGGSTNYADSVKGRFTISRDNAKNTVYLQMNSLKPEDTAVYYCAVVASNGSRFWYWGQGTQVTVSS
notes: as for B3
- binding [2]: binds

B9: TNFSF18_Nb98 (Fc fusion)
chain: QVQLQESGGGLVQAGGSLRLSCAASGSIFYVIAMGWYRQAPGKERELVATITAGTNTYYADSVKGRFTISRDNAKNTVYLQMNSLKPEDTAVYYCAVYALQQDVYDRSHAYWGQGTQVTVSS
notes: as for B3
- binding [2]: binds

B10: CD3D_Nb2.33 (Fc fusion)
chain: QVQLQESGGGLVQAGGSLRLSCAASGSIFYAEYMGWYRQAPGKEREFVAAITAGSTTYYADSVKGRFTISRDNAKNTVYLQMNSLKPEDTAVYYCAADGYYYGIEFTYYEYWGQGTQVTVSS
notes: as for B5
- binding (CD3D): binds

B11: CD3D_Nb2.34 (Fc fusion)
chain: QVQLQESGGGLVQAGGSLRLSCAASGTISTLDYMGWYRQAPGKEREFVAAINYGSNTYYADSVKGRFTISRDNAKNTVYLQMNSLKPEDTAVYYCAAADVTRPAYDYWGQGTQVTVSS
notes: as for B5
- binding (CD3D): binds

B12: CD3D_Nb2.35 (Fc fusion)
chain: QVQLQESGGGLVQAGGSLRLSCAASGTIFAYWYMGWYRQAPGKEREFVAAIGDGSSTYYADSVKGRFTISRDNAKNTVYLQMNSLKPEDTAVYYCAAEAPGYGHTYWGQGTQVTVSS
notes: as for B5
- binding (CD3D): binds

B13: CD3D_Nb2.36 (Fc fusion)
chain: QVQLQESGGGLVQAGGSLRLSCAASGSISAYWAMGWYRQAPGKEREFVAAINFGANTYYADSVKGRFTISRDNAKNTVYLQMNSLKPEDTAVYYCAAERDGDYHDYWGQGTQVTVSS
notes: as for B5
- binding (CD3D): binds

B14: CEACAM4_Nb36 (Fc fusion)
chain: QVQLQESGGGLVQAGGSLRLSCAASGNIFLGPYMGWYRQAPGKEREFVASINYGASTNYADSVKGRFTISRDNAKNTVYLQMNSLKPEDTAVYYCAAGYYSNDYYYYEYSYWGQGTQVTVSS
notes: as for B5
- binding (CEACAM4): binds

B15: CEACAM4_Nb40 (Fc fusion)
chain: QVQLQESGGGLVQAGGSLRLSCAASGTISPGYGMGWYRQAPGKEREFVATIAFGSSTYYADSVKGRFTISRDNAKNTVYLQMNSLKPEDTAVYYCAVAIYIPYFFRYWGQGTQVTVSS
notes: as for B5
- binding (CEACAM4): binds

B16: CEACAM4_Nb41 (Fc fusion)
chain: QVQLQESGGGLVQAGGSLRLSCAASGTISRSSIMGWYRQAPGKEREFVAGISYGSTTYYADSVKGRFTISRDNAKNTVYLQMNSLKPEDTAVYYCAVRDLYVWDHAYWGQGTQVTVSS
notes: as for B5
- binding (CEACAM4): binds

B17: IGF1_Nb3.33 (Fc fusion, not shown: a dimerising Fc or GST)
chain: QVQLQESGGGLVQAGGSLRLSCAASGNIFDLPYMGWYRQAPGKERELVATISIGSTTNYADSVKGRFTISRDNAKNTVYLQMNSLKPEDTAVYYCAVVHRSTGGYKYWGQGTQVTVSS
- binding (IGF1 (human)): binds

B18: IL13_Nb2.41 (Fc fusion)
chain: QVQLQESGGGLVQAGGSLRLSCAASGTIFVDEFMGWYRQAPGKEREFVASINDGGSTYYADSVKGRFTISRDNAKNTVYLQMNSLKPEDTAVYYCAVFEPSPDGDPFGDRAWFWYWGQGTQVTVSS
notes: as for B5
- binding (IL13): binds

B19: IL13_Nb2.42 (Fc fusion)
chain: QVQLQESGGGLVQAGGSLRLSCAASGTISATDFMGWYRQAPGKERELVAAINHGGSTYYADSVKGRFTISRDNAKNTVYLQMNSLKPEDTAVYYCAAARDDYPWHDYWGQGTQVTVSS
notes: as for B5
- binding (IL13): binds

B20: IL17A_Nb2.90 (Fc fusion)
chain: QVQLQESGGGLVQAGGSLRLSCAASGYISLRFYMGWYRQAPGKEREFVATIDDGSSTYYADSVKGRFTISRDNAKNTVYLQMNSLKPEDTAVYYCAVTAQTYYDHVYWGQGTQVTVSS
notes: as for B5
- binding (IL17A): binds

B21: IL17A_Nb2.92 (Fc fusion)
chain: QVQLQESGGGLVQAGGSLRLSCAASGTISQGDYMGWYRQAPGKEREFVASIAIGTITYYADSVKGRFTISRDNAKNTVYLQMNSLKPEDTAVYYCAVSVQFSYDFYYWGQGTQVTVSS
notes: as for B5
- binding (IL17A): binds

B22: IL1RN_Nb75 (Fc fusion)
chain: QVQLQESGGGLVQAGGSLRLSCAASGNIFRYDNMGWYRQAPGKEREFVATITYGSNTYYADSVKGRFTISRDNAKNTVYLQMNSLKPEDTAVYYCAAYFPYRSYDNSADTSSHSYWGQGTQVTVSS
notes: as for B5
- binding (IL1RN): binds

B23: IL1RN_Nb77 (Fc fusion)
chain: QVQLQESGGGLVQAGGSLRLSCAASGTIFTWLVMGWYRQAPGKERELVASIDPGTNTYYADSVKGRFTISRDNAKNTVYLQMNSLKPEDTAVYYCAARYVAGYTVGAYHYYWGQGTQVTVSS
notes: as for B5
- binding (IL1RN): binds

B24: IL21_Nb2.28 (Fc fusion)
chain: QVQLQESGGGLVQAGGSLRLSCAASGSISNTYVMGWYRQAPGKERELVAAIGHGGTTYYADSVKGRFTISRDNAKNTVYLQMNSLKPEDTAVYYCAVYLSRVRKFYYWGQGTQVTVSS
notes: as for B5
- binding (IL21): binds

B25: IL21 Nb2.29 (Fc fusion)
chain: QVQLQESGGGLVQAGGSLRLSCAASGNISWGTIMGWYRQAPGKEREFVAAISHGANTNYADSVKGRFTISRDNAKNTVYLQMNSLKPEDTAVYYCAAQSRAGSTRPRYHKYWGQGTQVTVSS
notes: as for B5
- binding (IL21): binds

B26: IL21_Nb2.30 (Fc fusion)
chain: QVQLQESGGGLVQAGGSLRLSCAASGTIFRETVMGWYRQAPGKERELVAAIDDGTSTYYADSVKGRFTISRDNAKNTVYLQMNSLKPEDTAVYYCAARASYTYGRLRFRYWGQGTQVTVSS
notes: as for B5
- binding (IL21): binds

B27: CCL16_Nb2.1 (Fc fusion)
chain: QVQLQESGGGLVQAGGSLRLSCAASGYISSYWDMGWYRQAPGKERELVAAIAPGTITYYADSVKGRFTISRDNAKNTVYLQMNSLKPEDTAVYYCAASEFDNEAHDYWGQGTQVTVSS
notes: as for B5
- binding (CCL16): binds
